Data as given in PubChem BioAssay AID1259308 (NCATS, 2017).
Here is a random part of about 59,000 deposited reagents. About 1,510 of them (2.6%) were called active. 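Calls use total luciferase alone and ignore viability, so some active siRNAs may act by altering cell number.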 A number with no mark means an inactive call. Reagents against one gene are numbered here. Not all columns of the deposit are shown.

Test: 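Candidate targets for better recombinant protein yield in mammalian cells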 (primary screen)
System: human HEK293 embryonic kidney cells stably expressing firefly luciferase (HEK-CMV-Luc2-Hygro)
Knock-down reagent: single siRNA against human genes, 0.8 pmol siRNA per well
Duration: 72 h
Read-out: 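Reporter luminescence and viable-cell signal on separate replicate plates, given as percent of non-targeting control and median/MAD z-scores, plus per-cell luciferase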
Scale: total luciferase, z-score: higher = more reporter protein produced
Active means: 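Active when the median/MAD z-score for overall luciferase is greater than 3; a gene was taken forward for validation with new siRNAs if at least two of its three siRNAs passed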
Calls: active = raised luciferase; inactive = no rise

For OSR1 (GeneID 130497) #1, the values are total luciferase, z-score 1.87.
Knock-down of OSR1 (GeneID 130497) #2 came out at: total luciferase, z-score -1.2.
With knock-down of OSR1 (GeneID 130497) #3, the screen gave total luciferase, z-score 0.959.
Silencing of CCDC69 (GeneID 26112) #1 came out at: total luciferase, z-score 2.25.
With knock-down of CCDC69 (GeneID 26112) #2, the record shows total luciferase, z-score 0.44.
Silencing of CCDC69 (GeneID 26112) #3 gave: total luciferase, z-score -1.02.
Depletion of ADAMTS3 (GeneID 9508) #1 resulted in: total luciferase, z-score -1.34.
ADAMTS3 (GeneID 9508) #2 showed total luciferase, z-score -0.243.
ADAMTS3 (GeneID 9508) #3 gave total luciferase, z-score 0.686.
Silencing of PTPRC (GeneID 5788) #1 came out at: total luciferase, z-score 0.4.
PTPRC (GeneID 5788) #2 scored total luciferase, z-score 1.05.
Against PTPRC (GeneID 5788) #3 the deposit lists total luciferase, z-score 1.41.
H4C16 (GeneID 121504) #1 gave total luciferase, z-score -0.11.
For H4C16 (GeneID 121504) #2, the values are total luciferase, z-score -1.02.
H4C16 (GeneID 121504) #3 showed total luciferase, z-score -0.662.
Against LHFPL7 (GeneID 255349) #1, the values are total luciferase, z-score -0.0284.
With knock-down of LHFPL7 (GeneID 255349) #2 the results were total luciferase, z-score -0.0699.
For LHFPL7 (GeneID 255349) #3, the values are total luciferase, z-score -0.357.
After knock-down of SOCS5 (GeneID 9655) #1, the record shows total luciferase, z-score -0.608.
Depletion of SOCS5 (GeneID 9655) #2 resulted in: total luciferase, z-score 0.144.
For SOCS5 (GeneID 9655) #3, the entry reads total luciferase, z-score 0.418.

Already shown: 5 of the entries above.
PTPRC (GeneID 5788) #3 → total luciferase, z-score = 1.41
H4C16 (GeneID 121504) #1 → total luciferase, z-score = -0.11
H4C16 (GeneID 121504) #2 → total luciferase, z-score = -1.02
H4C16 (GeneID 121504) #3 → total luciferase, z-score = -0.662
LHFPL7 (GeneID 255349) #1 → total luciferase, z-score = -0.0284

The list goes on:
GTF2H4 (GeneID 2968) #1 gave total luciferase, z-score 0.547.
With knock-down of GTF2H4 (GeneID 2968) #2, the screen gave total luciferase, z-score -0.99.
With knock-down of GTF2H4 (GeneID 2968) #3, the screen gave total luciferase, z-score 0.191.
PRIMA1 (GeneID 145270) #1 showed total luciferase, z-score 0.115.
Silencing of PRIMA1 (GeneID 145270) #2 came out at: total luciferase, z-score 0.439.
Knock-down of PRIMA1 (GeneID 145270) #3 gave: total luciferase, z-score 0.58.
CTH (GeneID 1491) #1 gave total luciferase, z-score 3.86 (active).
Against CTH (GeneID 1491) #2 the deposit lists total luciferase, z-score 0.77.
Knock-down of CTH (GeneID 1491) #3 gave: total luciferase, z-score 1.26.
Depletion of IFT80 (GeneID 57560) #1 came out at: total luciferase, z-score 1.21.
After knock-down of IFT80 (GeneID 57560) #2, the record shows total luciferase, z-score 0.512.
IFT80 (GeneID 57560) #3 scored total luciferase, z-score -0.891.
